# The whole screen tested about 140,000 compounds, of which about 4,300 (3.1%) were called active. Inconclusive results, whose numbers are uncertain, are shown with a selection of clear calls.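 How the source made its calls: active means readout at or below -70, meaning at least 70% loss of cells showing the perinucleolar compartment, a nuclear body marking cancer cells; inconclusive means readout between -30 and a set limit; inactive means the rest.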
# Assay: High Content Assay for Compounds that inhibit the Assembly of the Perinucleolar Compartment;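 further: plate controls were DMSO wells for no effect and camptothecin positive control wells for full effect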
# Details: PC3M PTB-GFP, PNC prevalence imaging, 16 h; at 10 µM; active compounds read low
# How it was run: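 PC3M cells stably expressing PTB-GFP, 750–1000 cells/well, treated 16 h at 37 °C with compound (23 nl of library stock), in duplicate. After paraformaldehyde fixation and Hoechst stain, imaged at 20x; PNC prevalence scored by image analysis.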
row,Structure (SMILES),"activity change (PNC), negative = inhibition"
1,Cc1cccc(C)c1OCC(=O)N/N=C/c1cccn1C,inconclusive: -46.9%
2,O=C(NCCN1CCCCCC1)C1CCC(CNS(=O)(=O)c2cccc3cccnc23)CC1 (centres undefined),inactive: 9.46%
3,CCC(C(=O)Nc1c[nH]c(=O)[nH]c1=O)c1ccccc1 (centres undefined),inconclusive: -41.4%
4,CCCC(=O)Nc1ccc(S(=O)(=O)Nc2cc(C)nc(C)n2)cc1,inconclusive: -38.2%
5,CCS(=O)(=O)N1CCN(c2ccc(Cl)cc2[N+](=O)[O-])CC1,active: -83.3%
6,CC1CCC(NC(=O)c2ccc(CNc3c(NC4CCCCC4)c(=O)c3=O)cc2)CC1 (centres undefined),inactive: 22.9%
7,N=c1n(CC(=O)O)c2ccccc2n1Cc1ccccc1Cl,inconclusive: -67.4%
8,O=C(OCC(=O)c1ccc(Cl)s1)c1ccccn1,inactive: 10.2%
9,N=c1n(CCN2CCCC2)c2ccccc2n1CC(O)c1ccco1 (centres undefined),active: -92.3%
10,Cc1cc(Cl)ccc1OCCCC(=O)N1CCOCC1,inconclusive: -33.2%
11,CCOC(=O)c1c(C)n(C)c2ccc(OCC(N)=O)cc12,inconclusive: -30.9%
12,CS(=O)(=O)N1CCCC(C(=O)NCc2ccc(F)cc2Cl)C1 (centres undefined),inconclusive: -36.1%
13,Cc1ccc(OCC(=O)N(C)CC(=O)Nc2ccc(F)cc2)c([N+](=O)[O-])n1,inconclusive: -55.2%
14,Cc1nc2ccccc2cc1OCc1ccccc1,inactive: -25.3%
15,CS(=O)(=O)N1CCCC(C(=O)NCc2ccccc2Cl)C1 (centres undefined),inconclusive: -42.9%
16,COc1ccc(OC)c(NC(=O)CSc2nnc(N)s2)c1,inactive: -16.4%
17,CN1C(=S)SC(C)(C)C1NO (centres undefined),inconclusive: -39.2%
18,O=C(CCCOc1ccccc1)N1CCCCC1,inactive: -18.9%
19,COc1ccccc1C(=O)NCC(=O)OCC(=O)c1ccc2c(c1)-c1ccccc1C2,inconclusive: -55.6%
20,CC(=O)N1CCN(c2ccc(NC(=O)c3ccc(C(C)(C)C)cc3)cc2)CC1,inconclusive: -68.6%

row,Structure (SMILES),"activity change (PNC), negative = inhibition"
1,CCN(C(=O)COC(=O)c1cc(NS(=O)(=O)c2ccc(Cl)c([N+](=O)[O-])c2)ccc1O)C1CCCCC1,inconclusive: -65.8%
2,O=C(CSc1ncn[nH]1)c1ccc2c(c1)OCCO2,inconclusive: -72.1%
3,Cc1cc[n+](-c2nc3ccccc3nc2[N-]S(=O)(=O)c2ccccc2)cc1,inconclusive: -42.2%
4,N#CC1=C(N)N(c2ccc(Br)cc2)C2=C(C(=O)CCC2)C1c1cccnc1 (centres undefined),inconclusive: -32.1%
5,Cn1cc(/C=N/NC(=O)COc2ccccc2[N+](=O)[O-])c2ccccc21,inconclusive: -47.3%
6,O=C(CSc1nnc(-c2cccs2)n1CC1CCCO1)c1cc2ccccc2o1 (centres undefined),inactive: -28.5%
7,CC(C)(C)NC(=O)c1oc2ccccc2c1COc1ccccc1,inactive: -29.3%
8,CCOC(=O)c1cc(-c2ccc(N3CCOCC3)cc2)nn1-c1ccccc1,inconclusive: -41.2%
9,CCOc1ccc(OCCSc2nc3ccccc3[nH]2)cc1,active: -92.1%
10,COc1cccc(Nc2ncnc3c2cnn3C)c1,inactive: 3.98%
11,CC(C)OC(=O)c1c(NC(=O)Cn2cnc([N+](=O)[O-])n2)sc2c1CCCC2,inconclusive: -37.5%
12,COC(=O)C1C(=O)C2=C(CC1C)NC(C)=C(C(=O)OC(C)C)C2c1ccc(C)o1 (centres undefined),inconclusive: -72.8%
13,Cc1cc(C)c(NC(=O)Nc2ccccc2)c(Cl)c1,active: -114%
14,COc1ccc(C(O)c2nccn2Cc2ccccc2)cc1OC (centres undefined),inconclusive: -38.5%
15,CCCCn1c(N)c(NCC(C)C)c(=O)[nH]c1=O,inconclusive: -37.7%
16,CCN(/N=C/c1cccs1)c1cc(=O)n(C)c(=O)[nH]1,inconclusive: -34.7%
17,COc1ccc(CNC(=O)COC(=O)c2c(-c3c(F)cccc3Cl)noc2C)cc1OC,inconclusive: -31.9%
18,Cc1cccc(NC(=O)c2cc3c(n(-c4ccccc4)c2=O)CCCC3=O)n1,inconclusive: -40.2%
19,O=c1c2c(n3nnnc3n1Cc1ccccc1)-c1ccccc1CC21CCCC1,inconclusive: -73.6%
20,CN(/C(=N/S(=O)(=O)c1ccccc1)c1ccccc1)S(=O)(=O)c1ccccc1,inconclusive: -32.8%

# Ordered by SMILES length (falling): part of the list above
row,Structure (SMILES),"activity change (PNC), negative = inhibition"
19,O=c1c2c(n3nnnc3n1Cc1ccccc1)-c1ccccc1CC21CCCC1,inconclusive: -73.6%
15,CS(=O)(=O)N1CCCC(C(=O)NCc2ccccc2Cl)C1 (centres undefined),inconclusive: -42.9%
10,COc1cccc(Nc2ncnc3c2cnn3C)c1,inactive: 3.98%

# (next part)

row,Structure (SMILES),"activity change (PNC), negative = inhibition"
1,Cc1c(C)n(CC(O)CN2CCCCCC2)c2ccccc12 (centres undefined),inconclusive: -46.9%
2,CCNC(=S)Nc1cc(OCC)c(NC(=O)c2cccs2)cc1OCC,inactive: -16%
3,COC(=O)c1ccc(S(=O)(=O)NCc2cccc(OC)c2)n1C,inconclusive: -44.5%
4,O=S(=O)(NCCOc1ccc(F)cc1)c1ccc2c(c1)OCCO2,inactive: -3.52%
5,O=C1CCCCCN1CSc1nc2ccccc2s1,inactive: -7.18%
6,CCN1CCCC1CNS(=O)(=O)c1ccc(C(=O)Nc2ccccc2)cc1 (centres undefined),inconclusive: -33%
7,CC(C)C1(C)C(=O)N=C2c3ccccc3C(=O)N21 (centres undefined),inconclusive: -48.1%
8,CCOC(=O)N1CCN(CC(O)COCC2=CCC3CC2C3(C)C)CC1 (centres undefined),inconclusive: -62.2%
9,O=C(NCc1ccco1)c1ccccc1F,inconclusive: -42.7%
10,CC(C)Sc1nc2ccccc2c(=O)[nH]1,inactive: -19.9%
11,N#CCCN1CCN(S(=O)(=O)c2ccc(C#N)cc2)CC1,inactive: 19.2%
12,CCOC(=O)C(=NC(C)CC)NNc1cccc(C(F)(F)F)c1 (centres undefined),inconclusive: -35.5%
13,CCOc1ccc(N(CC(=O)Nc2ccccc2C(=O)N2CCOCC2)S(=O)(=O)c2ccc(F)cc2)cc1,inconclusive: -44.9%
14,COc1cccc(-c2csc(N3CCN(C(=O)NC45CC6CC(CC(C6)C4)C5)CC3)n2)c1,inactive: -25.5%
15,CCOC(=O)c1sc2nc(CC(=O)OC)nc(N3CCN(c4ccc(OC)cc4)CC3)c2c1C,active: -99.9%
16,CCCCn1c(C)nc2c(=O)n(C)c(=O)[nH]c21,inconclusive: -44.2%
17,COC(=O)c1sccc1NC(=O)c1c(C)noc1C,inconclusive: -41%
18,CCN1C(=O)S/C(=C/c2cn(C)c3ccccc23)C1=O,inconclusive: -37.6%
19,O=C(CCCSc1nnc(SCCCC(=O)c2ccc(F)cc2)s1)c1ccc(F)cc1,inconclusive: -33.9%
